Test results reported in doi:10.1101/2025.09.11.675346.
Results are given in words; binding and its absence hold for the method and conditions named. Binding seen in cells or lysates may run through a third protein. Some results given as binding are weak or reduced against the parent protein; the word gives no strength. One block for each molecule: values may come before it.

Amino acid sequences for entries named in this document (tags omitted).
UniProt Q9BXW9: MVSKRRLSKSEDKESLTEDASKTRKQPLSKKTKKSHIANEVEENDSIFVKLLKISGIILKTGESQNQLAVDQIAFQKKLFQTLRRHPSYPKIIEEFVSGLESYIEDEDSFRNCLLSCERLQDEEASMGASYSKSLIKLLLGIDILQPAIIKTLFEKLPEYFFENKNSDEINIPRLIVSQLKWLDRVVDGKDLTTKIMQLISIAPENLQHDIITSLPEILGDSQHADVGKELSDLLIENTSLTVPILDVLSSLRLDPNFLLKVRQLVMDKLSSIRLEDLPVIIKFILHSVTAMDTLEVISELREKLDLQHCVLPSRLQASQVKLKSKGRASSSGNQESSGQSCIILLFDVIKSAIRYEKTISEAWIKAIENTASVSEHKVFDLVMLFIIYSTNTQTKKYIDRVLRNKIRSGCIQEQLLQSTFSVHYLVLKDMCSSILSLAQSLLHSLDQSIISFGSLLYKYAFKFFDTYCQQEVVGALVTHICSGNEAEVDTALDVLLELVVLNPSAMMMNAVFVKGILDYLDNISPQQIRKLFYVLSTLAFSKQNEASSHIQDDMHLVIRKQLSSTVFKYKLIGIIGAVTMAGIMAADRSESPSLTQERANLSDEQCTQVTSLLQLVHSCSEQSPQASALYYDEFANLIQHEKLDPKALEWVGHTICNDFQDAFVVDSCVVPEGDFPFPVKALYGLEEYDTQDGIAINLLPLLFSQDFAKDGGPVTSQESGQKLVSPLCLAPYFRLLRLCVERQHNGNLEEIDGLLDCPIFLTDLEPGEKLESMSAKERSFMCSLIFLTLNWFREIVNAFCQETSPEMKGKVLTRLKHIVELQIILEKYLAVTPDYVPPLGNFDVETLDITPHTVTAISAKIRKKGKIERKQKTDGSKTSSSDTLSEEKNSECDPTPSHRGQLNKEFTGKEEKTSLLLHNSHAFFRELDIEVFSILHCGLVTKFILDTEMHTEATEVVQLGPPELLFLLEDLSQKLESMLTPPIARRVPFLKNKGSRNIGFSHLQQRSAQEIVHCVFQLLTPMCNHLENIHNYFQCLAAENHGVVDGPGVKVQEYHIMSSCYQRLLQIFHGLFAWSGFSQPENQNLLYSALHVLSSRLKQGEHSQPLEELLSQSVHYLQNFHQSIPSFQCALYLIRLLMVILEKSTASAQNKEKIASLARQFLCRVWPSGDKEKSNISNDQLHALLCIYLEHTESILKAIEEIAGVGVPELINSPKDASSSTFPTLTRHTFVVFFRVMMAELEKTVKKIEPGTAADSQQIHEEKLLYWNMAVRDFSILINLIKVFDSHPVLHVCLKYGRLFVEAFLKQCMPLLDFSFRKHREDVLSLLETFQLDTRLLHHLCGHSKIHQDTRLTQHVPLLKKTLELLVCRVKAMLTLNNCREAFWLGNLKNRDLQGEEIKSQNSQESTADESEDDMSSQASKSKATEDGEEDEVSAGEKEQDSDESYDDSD
UniProt P06748: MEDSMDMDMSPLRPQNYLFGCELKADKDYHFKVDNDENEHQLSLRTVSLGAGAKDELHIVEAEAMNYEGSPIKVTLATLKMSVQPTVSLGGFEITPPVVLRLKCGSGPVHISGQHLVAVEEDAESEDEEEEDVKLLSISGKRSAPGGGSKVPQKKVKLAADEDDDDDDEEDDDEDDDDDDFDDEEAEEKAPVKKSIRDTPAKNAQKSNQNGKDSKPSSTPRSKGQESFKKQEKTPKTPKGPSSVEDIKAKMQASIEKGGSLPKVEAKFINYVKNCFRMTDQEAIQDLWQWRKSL

Molecular target: FANCD2 (human (endogenous in HSC93)) (UniProt Q9BXW9)
Assay: co-IP

binding: binds
Molecule: NPM1 (from UniProt P06748 1-294)

binding: no binding
B1: FANCG (protein, UniProt O15287 1-622)
chain: MSRQTTSVGSSCLDLWREKNDRLVRQAKVAQNSGLTLRRQQLAQDALEGLRGLLHSLQGLPAAVPVLPLELTVTCNFIILRASLAQGFTEDQAQDIQRSLERVLETQEQQGPRLEQGLRELWDSVLRASCLLPELLSALHRLVGLQAALWLSADRLGDLALLLETLNGSQSGASKDLLLLLKTWSPPAEELDAPLTLQDAQGLKDVLLTAFAYRQGLQELITGNPDKALSSLHEAASGLCPRPVLVQVYTALGSCHRKMGNPQRALLYLVAALKEGSAWGPPLLEASRLYQQLGDTTAELESLELLVEALNVPCSSKAPQFLIEVELLLPPPDLASPLHCGTQSQTKHILASRCLQTGRAGDAAEHYLDLLALLLDSSEPRFSPPPSPPGPCMPEVFLEAAVALIQAGRAQDALTLCEELLSRTSSLLPKMSRLWEDARKGTKELPYCPLWVSATHLLQGQAWVQLGAQKVAISEFSRCLELLFRATPEEKEQGAAFNCEQGCKSDAALQQLRAAALISRGLEWVASGQDTKALQDFLLSVQMCPGNRDTYFHLLQTLKRLDRRDEATALWWRLEAQTKGSHEDALWSLPLYLESYLSWIRPSDRDAFLEEFRTSLPKSCDL
